{"source": "PubChem BioAssay AID1259259 (Sanger Institute, 2017)", "test": "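Synthetic lethal kinase partners of anchor drugs in colorectal cancer cells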 (primary screen)", "cells": "SW1463 human colorectal cancer cells", "reagent": "siRNA pool against human genes", "treatment": "DMSO vehicle, or one anchor drug: BYL719 at 1 µM, cetuximab at 5 µg/ml, or trametinib at 10 nM", "measured": "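Viability as fraction of control pool 2 (non-targeting), replicate mean; knock-down robust z-score without any drug; synergy score averaged for each anchor drug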", "scale": "robust z-score, knock-down alone: higher = more viable cells after knock-down; viability, knock-down alone: higher = more viable cells", "units": "viability, knock-down alone in fraction of control", "call rule": "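a robust z-score under -3 for knock-down with no drug marks the gene as essential, meaning viability loss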", "calls": "active = essential: viability loss from knock-down alone; inactive = no change from knock-down alone", "note": "Shown is one part, drawn at random, of 794 reagents. Over the whole deposit, 9 (1.1%) are marked active. 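Calls rest on knock-down alone, not drug synergy; viability values seem capped at 1.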 Entries without a mark were called inactive. Not all columns of the deposit are shown. Not given: the amount of reagent, the time to read-out."}
{"gene knocked down": "CAMK2G", "robust z-score, knock-down alone": 0.221, "viability, knock-down alone": 0.942}
{"gene knocked down": "IRAK1", "robust z-score, knock-down alone": -0.708, "viability, knock-down alone": 0.882}
{"gene knocked down": "ATR", "robust z-score, knock-down alone": -0.209, "viability, knock-down alone": 0.914}
{"gene knocked down": "NTN4", "robust z-score, knock-down alone": -0.179, "viability, knock-down alone": 0.916}

The list goes on (2 carried over from the part before).
{"gene knocked down": "ATR", "robust z-score, knock-down alone": -0.209, "viability, knock-down alone": 0.914}
{"gene knocked down": "NTN4", "robust z-score, knock-down alone": -0.179, "viability, knock-down alone": 0.916}
{"gene knocked down": "POLR2B", "robust z-score, knock-down alone": -2.95, "viability, knock-down alone": 0.738}
{"gene knocked down": "IRAK3", "robust z-score, knock-down alone": -0.634, "viability, knock-down alone": 0.887}
{"gene knocked down": "PKIA", "robust z-score, knock-down alone": 1.13, "viability, knock-down alone": 1}
{"gene knocked down": "ALPK2", "robust z-score, knock-down alone": 0.559, "viability, knock-down alone": 0.964}
{"gene knocked down": "SRPK1", "robust z-score, knock-down alone": -0.266, "viability, knock-down alone": 0.911}
{"gene knocked down": "HIPK2", "robust z-score, knock-down alone": 1.13, "viability, knock-down alone": 1}
{"gene knocked down": "MAP3K6", "robust z-score, knock-down alone": -1.33, "viability, knock-down alone": 0.842}
{"gene knocked down": "TCF12", "robust z-score, knock-down alone": 1.13, "viability, knock-down alone": 1}
